PubChem BioAssay AID1259308, NCATS | 2017
Screen: 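Genes whose loss raises luciferase production in HEK293 cells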 (primary screen). System: human HEK293 embryonic kidney cells stably expressing firefly luciferase (HEK-CMV-Luc2-Hygro). Knock-down reagent: single siRNA against human genes, 0.8 pmol siRNA per well. Duration: 72 h. Measured: 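Luciferase light (ONE-Glo) measured on one replicate plate set and viability (CellTiter-Glo) on the other, scaled to a negative control siRNA, with robust z-scores and luciferase per cell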. Reading the numbers: total luciferase, z-score and total luciferase, % of control: higher = more reporter protein produced; luciferase per cell, z-score: higher = more reporter output per viable cell; viable cells, % of control: higher = more viable cells. Call rule: 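Active when the median/MAD z-score for overall luciferase is greater than 3; a gene was taken forward for validation with new siRNAs if at least two of its three siRNAs passed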. Meaning of the calls: active = raised luciferase; inactive = no rise.
Here is a random part of about 59,000 reagents tested. Over the whole deposit, about 1,510 (2.6%) are marked active. 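Calls use total luciferase alone and ignore viability, so some active siRNAs may act by altering cell number.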 A number with no mark means an inactive call. The numbers tell different reagents against one gene apart.

| Target gene | siRNA no. | total luciferase, z-score | total luciferase, % of control | luciferase per cell, z-score | viable cells, % of control |
| --- | --- | --- | --- | --- | --- |
| TP53RK | 1 | 0.475 | 91.3 | -0.065 | 104 |
| TP53RK | 2 | 0.00896 | 82.1 | -0.364 | 101 |
| TP53RK | 3 | -0.0325 | 81.2 | -0.457 | 102 |
| THRB | 1 | -0.358 | 74.8 | -0.939 | 107 |
| THRB | 2 | -1.11 | 59.9 | -0.877 | 84.3 |
| THRB | 3 | -0.113 | 79.6 | -0.266 | 95.4 |
| SEC11B | 1 | 0.189 | 85.7 | 0.0291 | 95 |
| SEC11B | 2 | -1.69 | 48.3 | -1.25 | 75 |
| SEC11B | 3 | 0.291 | 87.7 | 0.181 | 93.4 |
| JCADP1 | 1 | -1.03 | 61.4 | 0.399 | 61.8 |
| JCADP1 | 2 | 0.353 | 88.9 | 0.482 | 87.5 |
| JCADP1 | 3 | 0.376 | 89.4 | 0.362 | 90.8 |
| GLCE | 1 | 0.326 | 88.4 | 0.24 | 92.7 |
| GLCE | 2 | 2.57 | 133 | 1.95 | 89 |
| GLCE | 3 | 1.72 | 116 | 0.572 | 111 |
| TTLL8 | 1 | -0.71 | 67.8 | 0.199 | 71.9 |
| TTLL8 | 2 | 0.75 | 96.8 | 0.726 | 89.4 |
| TTLL8 | 3 | -3.95 | 3.29 | -6.27 | 19.2 |
| ABCG5 | 1 | -0.222 | 77.5 | -0.611 | 102 |
| ABCG5 | 2 | -1.75 | 47 | -1.52 | 78.4 |
| ABCG5 | 3 | -1.7 | 48.1 | -2.36 | 99.9 |

An excerpt from above, limited to “total luciferase, z-score”.
TP53RK #3: -0.0325
THRB #1: -0.358
THRB #2: -1.11
THRB #3: -0.113
SEC11B #1: 0.189
SEC11B #2: -1.69
SEC11B #3: 0.291
JCADP1 #1: -1.03
JCADP1 #2: 0.353
JCADP1 #3: 0.376

The list goes on:
| Target gene | siRNA no. | total luciferase, z-score | total luciferase, % of control | luciferase per cell, z-score | viable cells, % of control |
| --- | --- | --- | --- | --- | --- |
| OR8D4 | 1 | -1.28 | 56.5 | -1.19 | 86.3 |
| OR8D4 | 2 | -0.646 | 69 | -0.497 | 87.9 |
| OR8D4 | 3 | -0.105 | 79.8 | -0.386 | 98.7 |
| KRTAP2-4 | 1 | 1.18 | 105 | 0.692 | 98 |
| KRTAP2-4 | 2 | -0.475 | 72.4 | 0.112 | 78.6 |
| KRTAP2-4 | 3 | -0.31 | 75.7 | -0.348 | 92.7 |
| DEFA5 | 1 | 2.43 | 130 | 2.57 | 73.9 |
| DEFA5 | 2 | -0.165 | 78.6 | -0.107 | 90.3 |
| DEFA5 | 3 | 1.73 | 116 | 2.26 | 71.8 |
| GNA14 | 1 | -2.13 | 39.6 | -0.545 | 51 |
| GNA14 | 2 | 0.46 | 91 | -0.451 | 115 |
| GNA14 | 3 | -0.214 | 77.6 | -0.252 | 92.7 |
| CCDC107 | 1 | -0.12 | 79.5 | 0.168 | 85 |
| CCDC107 | 2 | -0.67 | 68.6 | -0.156 | 79.8 |
| CCDC107 | 3 | 0.344 | 88.7 | 0.816 | 80 |
| TRMT44 | 1 | -0.901 | 64 | -1.5 | 106 |
| TRMT44 | 2 | 0.621 | 94.2 | 0.401 | 94.8 |
| TRMT44 | 3 | 0.249 | 86.8 | 0.679 | 81.2 |
| AGPAT4 | 1 | 0.934 | 100 | 0.971 | 86.9 |
| AGPAT4 | 2 | -1.37 | 54.6 | -1.18 | 83.2 |
| AGPAT4 | 3 | 0.817 | 98.1 | 0.499 | 96.2 |
| NDUFA5 | 1 | -0.509 | 71.8 | -1.12 | 108 |
| NDUFA5 | 2 | 0.617 | 94.2 | 0.158 | 101 |
| NDUFA5 | 3 | -1.22 | 57.5 | -0.893 | 81.4 |
| PCDHA2 | 1 | 0.674 | 95.3 | 0.226 | 100 |
| PCDHA2 | 2 | 0.325 | 88.4 | 0.247 | 92.5 |
| PCDHA2 | 3 | 0.923 | 100 | 0.57 | 96.4 |
| USP11 | 1 | -2.24 | 37.3 | -3.4 | 102 |
| USP11 | 2 | -0.00373 | 81.8 | -0.317 | 99.4 |
| USP11 | 3 | 0.554 | 92.9 | 0.757 | 85.1 |
| DUSP10 | 1 | 0.85 | 98.8 | 1.4 | 76.4 |
| DUSP10 | 2 | -0.844 | 65.1 | -1.57 | 110 |
| DUSP10 | 3 | 0.107 | 84 | -0.0451 | 95 |
| SOHLH2 | 1 | -0.549 | 71 | -0.341 | 86.8 |
| SOHLH2 | 2 | 0.614 | 94.1 | 1.04 | 79.9 |
| SOHLH2 | 3 | -0.211 | 77.7 | -0.393 | 96.3 |
